Laboratory results as given in patent publication US20250288536A1, “PROTEIN PARTICLES INCLUDING AN ACTIVE AGENT AND METHODS OF MAKING AND USING THE SAME” (Dairy Mangement Inc., priority 2022, published 2025).

Test: Tryptophan fluorescence spectra analysis
Format: physicochemical
Conditions: pH 11, excitation 295 nm

Compound: N[C@@H](Cc1c[nH]c2ccccc12)C(=O)O [Trp, tryptophan]
- increase of emission intensity when HPH is applied: ~45 fold

Compound: α-lactalbumin
- increase of emission intensity when HPH is applied: about 50 fold
